Construct, isoform or probe ends are uncertain for at least one entry.
system: GST-OsMYB73 (Oryza sativa (rice)); experiment: EMSA; conditions: EMSA kit with 5'-biotin probes; recombinant protein; protein details: GST; label: 5' biotin

Binding result, binds:
CTTACTGGTAGGTGACATGC (double strand) [OsNF-YB1 probe 2], GTATAGACCGTTAAGGATAG (double strand) [OsYUC11 probe 3], TCCCCACCCTACGCGGCCCT (double strand) [OsISA2 probe 1], TTTTAAGTAGGTATAGATGT (double strand) [OsLTPL36 probe 4]

Source: publication PMC11933829
